{
  "source": "patent US20250129114",
  "about": "(published 2025)",
  "test": "general procedure: Fmoc solid-phase peptide synthesis; RA ProTide LL; RA MBHA PS LL; Fmoc-Gly-Wang-ProTide; Fmoc-Ala-Wang-ProTide",
  "details": "whole synthesis, UPLC, scale of the general procedure 0.1 mmol; run 1",
  "data": [
    {"substance": "thymosin", "values": [
      {"measurement": "crude purity (method not given)", "result": 69, "unit": "%"}
    ]}
  ]
}
